Source: patent EP0380554B1 (Ferring AB, priority 1987, dated 1993)

Assay: general procedure: Boc solid-phase peptide synthesis; 4-methylbenzhydrylamine resin, theoretical loading 0.66 meq/g (Peptides International)
Details: whole synthesis, 223 nm, one disulfide bridge, sequence written open

1-Hmp-2-Phe-8-Dab-VT
final HPLC purity: 99.5%

1-Hmp-2-Phe-8-Orn(Ala)-VT
final HPLC purity: 97.8%
